# Source: doi:10.1101/2025.09.28.679056
# Amino acid sequences for entries named in this document (tags omitted).
# UniProt O96001: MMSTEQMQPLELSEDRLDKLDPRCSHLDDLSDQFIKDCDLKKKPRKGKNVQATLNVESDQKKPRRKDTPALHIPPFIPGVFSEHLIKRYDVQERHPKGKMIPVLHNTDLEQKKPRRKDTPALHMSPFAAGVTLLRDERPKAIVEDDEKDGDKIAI
# No constants are given. Whether binding was seen depends on the method and setting. In cells and extracts the contact can be indirect. Here binding means that the protein was enriched with, or labelled near, the bait; the list need not be complete.
# Target: PPP1R17 tagged to GFP (UniProt O96001)
# Experiment: affinity purification with mass spectrometry
binder,measurement,value
"Ppp2r2d (protein, UniProt Q925E7 1-453) MAGAGGGGCPAGGNDFQWCFSQVKGAVDEDVAEADIISTVEFNYSGDLLATGDKGGRVVIFQREQENKGRAHSRGEYNVYSTFQSHEPEFDYLKSLEIEEKINKIRWLPQQNAAHFLLSTNDKTIKLWKISERDKRAEGYNLKDEDGRLRDPFRITALRVPILKPMDLMVEASPRRIFANAHTYHINSISVNSDHETYLSADDLRINLWHLEITDRSFNIVDIKPANMEELTEVITAAEFHPHQCNVFVYSSSKGTIRLCDMRSSALCDRHAKFFEEPEDPSSRSFFSEIISSISDVKFSHSGRYMMTRDYLSVKVWDLNMEGRPVETHQVHEYLRSKLCSLYENDCIFDKFECCWNGSDSAIMTGSYNNFFRMFDRNTRRDVTLEASRENSKPRASLKPRKVCTGGKRKKDEISVDSLDFNKKILHTAWHPMESIIAVAATNNLYIFQDKIN",binding,binds
